Measurements reported in PubChem BioAssay AID1347075 (National Center for Advancing Translational Sciences (NCATS), 2019).
Values joined by “and” are separate entries in the source; they are usually repeats but may differ in a detail not shown here. Equal values may be shown once. The whole screen tested about 400,000 compounds, of which about 5,500 (1.4%) were called active. The shares of active, inactive and inconclusive entries below differ from those in the screen. Calls follow the shape of the dose curve; as a rule, active = well fitted cell-killing curve with a large enough effect; inconclusive = small, poorly fitted or top-dose-only effect, or effect the other way; inactive = flat fitted curve, though single readings scatter. A potency beside an inconclusive call is a rough fit, not a confirmed value.

test: qHTS assay for MDR1-selective chemotherapeutics: Primary screen using the parental adenocarcinoma cell KB-3-1; conditions: KB-3-1 viability, CellTiter-Glo ATP luminescence, 72 h; activity change, negative = cytotoxic: at 46.1 µM (top of the series); also: nearly all actives have a fitted effect of over 60% in size
Outline: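 Parental KB-3-1 adenocarcinoma cells in phenol-red-free DMEM with 10% FBS were pin-treated with compounds at several concentrations, incubated 72 h at 37 °C, and viability read by CellTiter-Glo luminescence; concentration-effect curves were fitted after normalization.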
% is scaled to controls: 0 for no effect and ±100 for the full control effect; potency is read from the fitted curve at half-maximal effect.

Row | Compound | Potency | activity change, negative = cytotoxic
1 | Cc1cccc(N2CCN(C(=O)NC3CCCCC3)CC2)c1C | inconclusive: 16.4 µM [cytotoxic, single point] | 
2 | CCCNC(=O)C1CCN(C(=O)N2CC(C)Oc3ccccc32)CC1 (centres undefined) | inactive | 
3 | O=C(Nc1sc2c(c1C(=O)O)CCCC2)c1cccs1 | inconclusive: 15.8 µM [cytotoxic, single point] | 
4 | Cc1onc(-c2c(Cl)cccc2Cl)c1C(=O)c1ccccc1 | inactive | 
5 | CC(=O)Nc1ccc(-c2ccnc3c2CC(C)(C(=O)Nc2ccc(Cl)c(C(F)(F)F)c2)O3)cc1 (centres undefined) | inconclusive: 29.1 µM [cytotoxic, single point] | 
6 | COC(=O)Cn1cnc2scc(-c3ccc(C)cc3)c2c1=O | inconclusive: 6.51 µM [rising, partial curve, poor fit] | 
7 | COc1ccc(N(C)C(=O)c2ccc3nc(-c4ccccc4)c(-c4ccccc4)nc3c2)cc1 | inconclusive: 20.6 µM [cytotoxic, single point] | 
8 | CCc1c(C(C)=O)oc2ccc3c(C)cc(=O)oc3c12 | inactive | 
9 | CCCNC(=O)C1(C)CCCN(C(=O)c2cccc(C(F)(F)F)c2)C1 (centres undefined) | inactive | 
10 | c1ccc(CN2CCN(c3nc(NCc4ccco4)c4ccccc4n3)CC2)cc1 | inconclusive: 20.6 µM [cytotoxic, single point] | 
11 | O=C(Cn1c(/C=C/c2ccccc2)nc2ccccc21)Nc1ccc(F)cc1 | inconclusive: 29.1 µM [cytotoxic, single point] | 
12 | Cc1nc2c(OCc3ccc(C#N)cc3)cccn2c1N(C)Cc1cccs1 | inconclusive: 23.1 µM [cytotoxic, single point] | 
13 | Cc1cccc(N2CCN(C(=O)c3cnn(-c4ccc(F)cc4F)c3C3CCN(C(=O)OC(C)(C)C)CC3)CC2)c1C | inconclusive: 29.1 µM [cytotoxic, single point] | 
14 | COc1ccc(N2CCN(C3CCCN(Cc4cccc(C)c4)C3)CC2)cc1 (centres undefined) | inconclusive: 29.1 µM [cytotoxic, single point] | 
15 | COc1cc2c(cc1OC)C1(Nc3c-2c(Cc2ccccc2)nn3-c2ccccc2)C(=O)Nc2ccccc21 (centres undefined) | inconclusive: 29.1 µM [cytotoxic, single point] | 
16 | Cc1cccc(Cl)c1NC(=S)NCCc1ccccn1 |  | inconclusive: 30.1%
17 | O=C(Nc1nc(-c2ccccc2)cs1)c1ccc(N2CCOCC2)c([N+](=O)[O-])c1 | inconclusive: 32.6 µM [cytotoxic, single point] | 
18 | COc1ccccc1NC(=O)CSc1n[nH]c(-c2ccccn2)n1 | inconclusive: 29.1 µM [cytotoxic, single point] | 
19 | CCOc1cc(S(=O)(=O)Nc2ccccc2CC)ccc1Cl | inactive | 
20 | CN(C)C(=O)c1ccc(Nc2nc(-c3cccs3)nc3ccccc23)cc1 | inactive | 
21 | NC(=O)C1CCN(C(=O)COCc2cc(-c3ccc4c(c3)OCO4)on2)CC1 | inconclusive: 20.6 µM [rising, single point] | 
22 | c1ccc2oc(-c3ccc4nc[nH]c4c3)nc2c1 | inactive | 
23 | COC(=O)C1C(=O)C(C(=O)c2ccccc2)C(=O)CC1(C)C (centres undefined) |  | inconclusive: -36.3%

Part of the list above, as labelled records.
CCCNC(=O)C1(C)CCCN(C(=O)c2cccc(C(F)(F)F)c2)C1 (centres undefined)
  Potency: inactive
c1ccc(CN2CCN(c3nc(NCc4ccco4)c4ccccc4n3)CC2)cc1
  Potency: inconclusive: 20.6 µM [cytotoxic, single point]
O=C(Cn1c(/C=C/c2ccccc2)nc2ccccc21)Nc1ccc(F)cc1
  Potency: inconclusive: 29.1 µM [cytotoxic, single point]

Further compounds.

Row | Compound | Potency | activity change, negative = cytotoxic
24 | O=C(NNC(=O)c1nn(-c2ccc(F)cc2)ccc1=O)c1ccccc1Cl | inconclusive: 0.0065 µM [cytotoxic, full curve, poor fit] | 
25 | CCC(CC)NC(=O)Nc1cccc(C)c1C | inactive | 
26 | Cc1cc(C)n(-c2nc(SCCN3CCOCC3)c3c4c(sc3n2)CCCC4)n1 | inconclusive: 25.9 µM [cytotoxic, partial curve, poor fit] | 
27 | Oc1cc2c(cc1C(c1ccc(Cl)c(Cl)c1)N1CCCC1)OCO2 (centres undefined) | inactive | 
28 | O=C(NCc1ccncc1)C(=O)NCC(c1ccco1)N1CCN(c2ccccc2)CC1 (centres undefined) | inactive | 
29 | CCOc1ccc(NC(=O)CC2C(=O)N(c3ccc(OC)cc3)C(=O)N2C2CCCCC2)cc1 (centres undefined) | inconclusive: 29.1 µM [cytotoxic, single point] | 
30 | COc1ccccc1-c1cc(C(=O)N/N=C/c2sccc2C)c2ccccc2n1 | inconclusive: 29.1 µM [cytotoxic, single point] | 
31 | O=C(CN(Cc1ccc(Cl)cc1)C(=O)c1csnn1)NCc1ccccc1 | inconclusive: 29.1 µM [rising, single point] | 
32 | O=C(CCS(=O)(=O)c1ccc(F)cc1)Nc1nc(-c2ccccn2)cs1 | inconclusive: 3.26 µM [cytotoxic, partial curve, poor fit] | 
33 | CCC(C)Nc1ccc(NC(C)CC)cc1 (centres undefined) | inconclusive: 4.6 nM [cytotoxic, full curve, poor fit] and inconclusive: 25.9 µM [cytotoxic, single point] | 
34 | OC(CNCC1CCCO1)Cn1c2ccc(Cl)cc2c2cc(Cl)ccc21 (centres undefined) | inconclusive: 23.1 µM [cytotoxic, single point] | 
35 | C=CCNc1nnc(Cc2ccc(F)cc2)c(=O)[nH]1 | inactive | 
36 | N#CN=c1snc(-c2ccccc2Cl)n1-c1ccccc1Cl | inactive | 
37 | COc1ccc(NC(=O)c2cc(-c3ccc4c(c3)OCO4)on2)cc1OC | inconclusive: 7.31 µM [cytotoxic, partial curve, poor fit] | 
38 | CCN(CC)c1ccc(C2NC(=O)c3ccccc3N2)cc1 (centres undefined) | active: 4.11 µM | 
39 | COc1ccccc1CCN1CCCC(CN(C)C(=O)c2ccoc2)C1 (centres undefined) | inactive | 
40 | O=C(O)CCCCCNC(=O)CSc1nnc(-c2ccco2)n1-c1ccccc1 | inactive | 
41 | CN(C)c1ccc(/C=C/C(=O)c2ccccc2)cc1[N+](=O)[O-] | inactive | 
42 | CCC(=O)Nc1nc2ccccc2n1CCN1CCOCC1 | inconclusive: 29.1 µM [rising, single point] | 
43 | N=C(N1CCCc2ccccc21)N1CCCc2ccccc21 | inactive | 
44 | CCOc1cc(/C=C2\C(=N)N3N=C(S(C)(=O)=O)SC3=NC2=O)ccc1OCCOc1cccc(OC)c1 | inactive | 
45 | C=CCN(c1ccccc1)S(=O)(=O)c1cccc(C(=O)Nc2cc(C)ccn2)c1 | inconclusive: 16.4 µM [cytotoxic, single point] | 
46 | O=C(Oc1ccccc1)c1c(Cl)cccc1P(=O)(O)O | inactive | 

2 successive records out of the list so far, for reference:
Row | Compound | Potency | activity change, negative = cytotoxic
32 | O=C(CCS(=O)(=O)c1ccc(F)cc1)Nc1nc(-c2ccccn2)cs1 | inconclusive: 3.26 µM [cytotoxic, partial curve, poor fit] | 
33 | CCC(C)Nc1ccc(NC(C)CC)cc1 (centres undefined) | inconclusive: 4.6 nM [cytotoxic, full curve, poor fit] and inconclusive: 25.9 µM [cytotoxic, single point] | 

(listing goes on)

Row | Compound | Potency | activity change, negative = cytotoxic
47 | Cc1ccccc1Nc1nc(NCc2ccco2)c2ccccc2n1 | inconclusive: 18.4 µM [cytotoxic, single point] | 
48 | FC(F)(F)c1cc(-c2ccco2)nc(NCc2cccnc2)n1 | inconclusive: 23.1 µM [cytotoxic, partial curve, poor fit] | 
49 | CCOc1ccc2nc3cc(NCc4ccc(OC)cc4)ccc3c(N)c2c1 | inconclusive: 29.1 µM [cytotoxic, single point] | 
50 | CCc1cc2ccc(C)cc2nc1SCC(=O)Nc1c[nH]c(=O)[nH]c1=O | inactive | 
51 | O=C(COC(=O)C1CCN(c2ccc(C(F)(F)F)cn2)CC1)NCc1ccc(Cl)cc1Cl | inconclusive: 14.6 µM [rising, partial curve, poor fit] | 
52 | COc1ccc(NC(=O)C2Cc3c(-c4cccc(C(C)=O)c4)ccnc3O2)cc1OC (centres undefined) | active: 5.17 µM | 
53 | O=C(COc1cccc2c1CCN(Cc1ccc(Br)cc1)C2=O)N1CCOCC1 | inconclusive: 18.4 µM [cytotoxic, partial curve, poor fit] | 
54 | O=C1[C@H]2[C@@H](c3ccc(F)cc3)N3C(=O)N(c4cccc(Br)c4)C(=O)[C@@]3(Cc3ccccc3)[C@H]2C(=O)N1C1CCCCC1 | inconclusive: 6.51 µM [cytotoxic, partial curve] | 
55 | Cc1ccccc1C(=O)NC(CC(C)C)C(=O)NN1C(=O)c2ccccc2C1=O (centres undefined) | inconclusive: 29.1 µM [cytotoxic, single point] | 
56 | CCN(CC)S(=O)(=O)c1cccc2cccnc12 | inactive | 
57 | COc1ccc(NC(=O)N(C)C[C@H]2OCCCC[C@H](C)Oc3ccc(NS(=O)(=O)c4cn(C)cn4)cc3C(=O)N([C@H](C)CO)C[C@@H]2C)cc1 | inconclusive: 29.1 µM [rising, single point] | 
58 | COc1cc2c(cc1NC(=O)COCC(=O)O)oc1ccccc12 | inactive | 
59 | CCOc1cc(CNCCO)cc(Br)c1OCc1ccc(Cl)cc1 | inconclusive: 29.1 µM [cytotoxic, single point] | 
60 | COc1ccc(-c2c(C#N)c(N)n(N)c(=O)c2C#N)cc1Cl | inconclusive: 20.6 µM [rising, partial curve, poor fit] | 
61 | O=C(Nc1nccs1)c1cc2c(s1)-c1ccccc1OC2 | inconclusive: 18.4 µM [cytotoxic, single point] | 
62 | S=C(NC1CCCC1)N1CCN(C/C=C/c2ccccc2)CC1 | inconclusive: 25.9 µM [cytotoxic, single point] | 
63 | CC(C)C(C)(C#N)NC(=O)CSc1nc2scc(-c3ccc(F)cc3)c2c(=O)n1Cc1ccccc1 (centres undefined) | inactive | 
64 | Cn1c(=O)n(C)c2cc(NS(=O)(=O)c3ccccc3)ccc21 | inactive | 
65 | Cc1ccc([N+](=O)[O-])cc1N(CC(=O)Nc1ccc(S(=O)(=O)Nc2cccc(C(F)(F)F)c2)cc1)S(C)(=O)=O | inconclusive: 29.1 µM [cytotoxic, single point] | 
66 | CCCCNC(=O)C1(C)CCN1C(=O)c1cc(-c2cccs2)oc1C (centres undefined) | inconclusive: 29.1 µM [cytotoxic, partial curve, poor fit] | 
67 | COc1ccc2cc(C)c3nnc(SCC(=O)Nc4nc(-c5ccc(F)cc5)cs4)n3c2c1 | inconclusive: 29.1 µM [cytotoxic, single point] | 
68 | Cc1nc2ccccc2n1/N=C/c1ccc([N+](=O)[O-])s1 | inconclusive: 14.6 µM [cytotoxic, partial curve, poor fit] | 
69 | O=C(N/C(=C\c1ccccc1)C(=O)N1CCOCC1)c1ccc(Br)o1 |  | inconclusive: -0.228%
